This list was built around the results that the source calls inconclusive (neither active nor inactive); the mix of calls is not that of the screen. For some of these results: A potency beside an inconclusive call is a rough fit, not a confirmed value. The source made the active and inactive calls. Unless noted, calls follow the shape of the dose curve; as a rule, active = well fitted curve in the direction sought with a large enough effect; inconclusive = small, poorly fitted or top-dose-only effect, or another doubt; inactive = no such curve, though single readings can be large; an effect the other way counts as inactive or inconclusive. Residues, ends and D or L forms follow the SMILES beside them. *: point of attachment. Cbz = O=C(OCc1ccccc1)*
What was measured:
[1] = Stat Signaling Pathway (AID 446; active = well fitted curve in either direction with a large enough effect, not every such curve was filed as active; inconclusive = small, poorly fitted or top-dose-only effect, or another doubt;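 also: ME-180 cervical cancer cells given 40 pM IL-6 alongside compound; SIE-controlled beta-lactamase reporter measured as 460/530 nm FRET emission ratio; % is scaled to controls: 0 for no effect and ±100 for the full control effect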); details: ME-180 (cervical carcinoma) SIE beta-lactamase reporter, IL-6 stimulated, 5 h; at 38 µM (top of the series)
Method in brief: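 Emission at 460 and 530 nm (excitation 405 nm) reports SIE-controlled beta-lactamase in ME-180 cells. Cells received compound with 40 pM IL-6 for 5 hrs at 37 C; data scaled between 300 pM IL-6 and 125 nM JAK-inhibitor controls.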

Chains of the proteins cited; added tags and fusions are not shown. Lines headed by an entry give the natural chain unless they say otherwise; changes in a name come on top.
UniProt P08482: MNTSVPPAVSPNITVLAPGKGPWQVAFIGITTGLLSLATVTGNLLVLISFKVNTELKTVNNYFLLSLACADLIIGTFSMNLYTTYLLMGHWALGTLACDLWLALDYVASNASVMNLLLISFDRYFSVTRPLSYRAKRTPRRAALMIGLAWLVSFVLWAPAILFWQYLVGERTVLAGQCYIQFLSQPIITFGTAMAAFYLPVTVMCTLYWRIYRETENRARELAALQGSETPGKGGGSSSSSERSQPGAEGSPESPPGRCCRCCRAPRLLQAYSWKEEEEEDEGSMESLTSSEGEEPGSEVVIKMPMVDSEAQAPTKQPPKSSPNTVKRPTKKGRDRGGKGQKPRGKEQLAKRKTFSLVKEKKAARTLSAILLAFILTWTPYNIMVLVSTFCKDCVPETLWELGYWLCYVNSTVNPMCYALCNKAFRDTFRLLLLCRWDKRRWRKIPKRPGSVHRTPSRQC
UniProt P54132: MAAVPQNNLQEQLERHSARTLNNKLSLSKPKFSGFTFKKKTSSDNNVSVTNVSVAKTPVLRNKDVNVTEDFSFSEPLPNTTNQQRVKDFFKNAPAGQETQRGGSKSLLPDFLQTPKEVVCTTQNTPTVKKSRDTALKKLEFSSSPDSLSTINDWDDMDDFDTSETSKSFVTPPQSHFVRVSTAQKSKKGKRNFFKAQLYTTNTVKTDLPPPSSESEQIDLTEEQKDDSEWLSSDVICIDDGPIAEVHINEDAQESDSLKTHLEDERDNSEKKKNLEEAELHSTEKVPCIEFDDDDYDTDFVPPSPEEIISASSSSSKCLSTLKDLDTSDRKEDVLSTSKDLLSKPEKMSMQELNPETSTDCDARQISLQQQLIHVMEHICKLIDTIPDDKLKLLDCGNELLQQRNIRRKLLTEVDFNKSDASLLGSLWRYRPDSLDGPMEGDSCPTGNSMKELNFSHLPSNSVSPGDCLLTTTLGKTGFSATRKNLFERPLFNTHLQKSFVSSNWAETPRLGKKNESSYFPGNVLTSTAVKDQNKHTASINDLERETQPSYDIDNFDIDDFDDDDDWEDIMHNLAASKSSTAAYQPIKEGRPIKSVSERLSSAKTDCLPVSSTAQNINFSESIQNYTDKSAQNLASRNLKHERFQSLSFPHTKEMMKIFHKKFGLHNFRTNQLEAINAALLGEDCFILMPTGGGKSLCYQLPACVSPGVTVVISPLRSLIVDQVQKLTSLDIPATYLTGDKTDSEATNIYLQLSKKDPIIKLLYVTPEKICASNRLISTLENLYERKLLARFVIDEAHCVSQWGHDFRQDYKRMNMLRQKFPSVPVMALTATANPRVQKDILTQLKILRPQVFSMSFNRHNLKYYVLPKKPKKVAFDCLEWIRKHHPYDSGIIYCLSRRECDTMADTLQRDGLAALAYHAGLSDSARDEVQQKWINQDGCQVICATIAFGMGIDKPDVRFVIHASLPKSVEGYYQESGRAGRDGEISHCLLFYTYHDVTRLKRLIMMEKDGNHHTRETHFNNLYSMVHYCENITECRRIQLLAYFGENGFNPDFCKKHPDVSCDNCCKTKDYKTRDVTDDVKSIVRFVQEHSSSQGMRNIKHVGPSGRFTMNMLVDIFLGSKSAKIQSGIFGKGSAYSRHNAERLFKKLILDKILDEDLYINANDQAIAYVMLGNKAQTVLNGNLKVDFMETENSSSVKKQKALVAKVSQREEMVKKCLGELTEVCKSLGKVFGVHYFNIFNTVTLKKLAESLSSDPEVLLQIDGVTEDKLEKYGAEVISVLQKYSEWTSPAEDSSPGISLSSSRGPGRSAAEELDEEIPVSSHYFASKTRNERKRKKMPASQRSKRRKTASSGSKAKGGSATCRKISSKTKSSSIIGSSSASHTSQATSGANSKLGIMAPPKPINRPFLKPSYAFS
UniProt O89049, whole entry, looked up: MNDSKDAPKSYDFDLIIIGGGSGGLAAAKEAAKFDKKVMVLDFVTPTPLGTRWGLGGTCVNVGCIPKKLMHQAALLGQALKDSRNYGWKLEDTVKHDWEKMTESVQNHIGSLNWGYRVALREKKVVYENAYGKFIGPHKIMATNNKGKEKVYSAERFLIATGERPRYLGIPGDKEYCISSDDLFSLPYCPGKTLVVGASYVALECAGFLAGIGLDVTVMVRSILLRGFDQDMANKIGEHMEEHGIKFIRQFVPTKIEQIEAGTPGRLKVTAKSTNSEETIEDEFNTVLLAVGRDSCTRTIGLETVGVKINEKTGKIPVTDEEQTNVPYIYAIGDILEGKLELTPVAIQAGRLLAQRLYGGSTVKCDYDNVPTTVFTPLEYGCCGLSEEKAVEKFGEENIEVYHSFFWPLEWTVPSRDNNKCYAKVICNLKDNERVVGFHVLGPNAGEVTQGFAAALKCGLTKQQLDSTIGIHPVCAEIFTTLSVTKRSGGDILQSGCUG
UniProt Q99549: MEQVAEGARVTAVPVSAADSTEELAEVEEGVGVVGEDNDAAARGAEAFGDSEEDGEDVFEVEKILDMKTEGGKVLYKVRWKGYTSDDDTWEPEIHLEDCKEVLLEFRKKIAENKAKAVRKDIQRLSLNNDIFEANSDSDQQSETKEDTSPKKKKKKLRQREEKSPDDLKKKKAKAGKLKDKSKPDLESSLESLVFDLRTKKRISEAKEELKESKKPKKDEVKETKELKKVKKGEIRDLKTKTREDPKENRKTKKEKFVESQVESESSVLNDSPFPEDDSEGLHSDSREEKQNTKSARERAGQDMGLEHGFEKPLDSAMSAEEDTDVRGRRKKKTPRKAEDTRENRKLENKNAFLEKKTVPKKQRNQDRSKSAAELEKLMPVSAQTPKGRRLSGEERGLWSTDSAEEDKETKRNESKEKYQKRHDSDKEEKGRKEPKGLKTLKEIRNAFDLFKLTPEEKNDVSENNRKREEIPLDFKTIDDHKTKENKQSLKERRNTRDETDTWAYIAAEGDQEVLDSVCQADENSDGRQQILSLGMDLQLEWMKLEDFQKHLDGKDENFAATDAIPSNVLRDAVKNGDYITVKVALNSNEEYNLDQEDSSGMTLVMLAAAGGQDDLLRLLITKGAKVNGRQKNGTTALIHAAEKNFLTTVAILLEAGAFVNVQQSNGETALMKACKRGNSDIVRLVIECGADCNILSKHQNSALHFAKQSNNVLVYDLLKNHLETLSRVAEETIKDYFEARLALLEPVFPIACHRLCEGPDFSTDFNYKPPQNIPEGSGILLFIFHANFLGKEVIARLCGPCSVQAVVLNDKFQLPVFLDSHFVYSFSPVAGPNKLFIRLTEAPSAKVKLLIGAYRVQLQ
UniProt P21728, whole entry, looked up: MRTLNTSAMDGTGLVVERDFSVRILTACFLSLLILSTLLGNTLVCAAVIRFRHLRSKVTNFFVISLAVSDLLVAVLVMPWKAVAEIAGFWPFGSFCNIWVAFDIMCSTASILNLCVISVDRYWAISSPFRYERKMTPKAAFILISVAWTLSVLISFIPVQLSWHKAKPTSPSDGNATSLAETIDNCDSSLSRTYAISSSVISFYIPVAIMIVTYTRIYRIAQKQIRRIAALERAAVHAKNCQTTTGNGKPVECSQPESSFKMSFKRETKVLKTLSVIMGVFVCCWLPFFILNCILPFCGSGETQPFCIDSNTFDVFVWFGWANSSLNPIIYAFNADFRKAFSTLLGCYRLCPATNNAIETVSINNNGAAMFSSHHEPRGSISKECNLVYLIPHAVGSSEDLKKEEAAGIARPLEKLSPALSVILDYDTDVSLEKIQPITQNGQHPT
UniProt Q9UGL1: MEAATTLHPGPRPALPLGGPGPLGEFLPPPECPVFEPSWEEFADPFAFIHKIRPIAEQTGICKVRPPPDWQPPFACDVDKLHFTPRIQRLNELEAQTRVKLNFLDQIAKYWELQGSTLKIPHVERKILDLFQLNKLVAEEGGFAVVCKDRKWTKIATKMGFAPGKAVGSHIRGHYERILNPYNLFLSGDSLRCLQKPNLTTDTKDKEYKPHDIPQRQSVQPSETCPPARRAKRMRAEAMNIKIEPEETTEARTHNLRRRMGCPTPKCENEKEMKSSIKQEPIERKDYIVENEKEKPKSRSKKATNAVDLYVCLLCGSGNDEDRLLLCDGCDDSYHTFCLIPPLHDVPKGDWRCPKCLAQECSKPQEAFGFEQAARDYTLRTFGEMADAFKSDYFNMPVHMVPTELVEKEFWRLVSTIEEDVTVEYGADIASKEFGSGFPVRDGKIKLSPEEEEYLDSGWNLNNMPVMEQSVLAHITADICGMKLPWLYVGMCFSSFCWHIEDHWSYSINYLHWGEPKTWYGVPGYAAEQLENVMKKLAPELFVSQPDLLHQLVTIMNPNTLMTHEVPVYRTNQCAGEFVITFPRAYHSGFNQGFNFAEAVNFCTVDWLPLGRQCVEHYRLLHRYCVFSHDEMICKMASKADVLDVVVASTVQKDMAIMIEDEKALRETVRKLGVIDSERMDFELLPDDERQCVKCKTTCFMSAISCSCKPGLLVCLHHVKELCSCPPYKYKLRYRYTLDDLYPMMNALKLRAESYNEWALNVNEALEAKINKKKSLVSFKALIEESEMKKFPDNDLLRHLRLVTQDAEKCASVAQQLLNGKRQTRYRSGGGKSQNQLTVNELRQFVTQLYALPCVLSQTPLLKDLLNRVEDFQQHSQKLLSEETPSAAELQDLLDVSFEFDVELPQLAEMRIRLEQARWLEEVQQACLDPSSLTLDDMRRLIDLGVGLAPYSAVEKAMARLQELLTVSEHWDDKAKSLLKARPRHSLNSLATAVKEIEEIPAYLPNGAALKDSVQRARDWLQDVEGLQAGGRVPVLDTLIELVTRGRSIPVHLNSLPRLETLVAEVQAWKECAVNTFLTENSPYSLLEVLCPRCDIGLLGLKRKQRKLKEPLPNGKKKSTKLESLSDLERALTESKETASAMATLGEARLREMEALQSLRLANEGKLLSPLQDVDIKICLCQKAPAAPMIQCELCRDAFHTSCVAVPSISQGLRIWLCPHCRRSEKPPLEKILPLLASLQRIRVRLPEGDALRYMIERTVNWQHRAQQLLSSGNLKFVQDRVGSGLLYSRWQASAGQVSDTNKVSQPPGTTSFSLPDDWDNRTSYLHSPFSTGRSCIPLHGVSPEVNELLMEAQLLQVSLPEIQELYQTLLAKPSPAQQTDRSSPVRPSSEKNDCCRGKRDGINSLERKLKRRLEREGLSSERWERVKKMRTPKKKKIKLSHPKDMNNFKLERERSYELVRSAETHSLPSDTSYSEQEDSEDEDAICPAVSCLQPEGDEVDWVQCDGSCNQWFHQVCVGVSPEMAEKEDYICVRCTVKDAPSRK
UniProt P00784: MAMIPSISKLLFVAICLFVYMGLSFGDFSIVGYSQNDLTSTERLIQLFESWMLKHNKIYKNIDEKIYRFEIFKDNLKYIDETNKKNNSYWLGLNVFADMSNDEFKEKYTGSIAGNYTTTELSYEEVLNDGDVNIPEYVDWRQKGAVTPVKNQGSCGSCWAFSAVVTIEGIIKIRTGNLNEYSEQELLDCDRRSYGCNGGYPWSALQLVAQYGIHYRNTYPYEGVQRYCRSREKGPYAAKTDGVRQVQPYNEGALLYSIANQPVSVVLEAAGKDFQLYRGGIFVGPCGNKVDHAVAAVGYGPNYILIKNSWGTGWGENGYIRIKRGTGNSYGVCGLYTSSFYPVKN

[2] = qHTS Assay for Identification of Small Molecule Agonists for Thrombopoietin (TPO) Signaling Pathway (AID 917); also: % is scaled to controls: 0 for no effect and ±100 for the full control effect
Method in brief: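 Human TPO receptor–transfected Ba/F3 cells (murine, IL-3-dependent) in IL-3-deficient medium; compounds plus TPO at EC50, 26 pM final; 24 hrs, 37 C; GpIIb-luciferase luminescence after 10 min RT detection.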

[3] = qHTS Assay for Identification of Small Molecule Antagonists for Thrombopoietin (TPO) Signaling Pathway (AID 918); details: TPO-dependent cell signaling reporter, antagonist mode; activity change, negative = inhibition: at 38.5 µM (top of the series)
Method in brief: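 Antagonist mode at EC50 TPO (26 pM) in IL-3-free medium; murine Ba/F3 cells with human TPO receptor and GPIIb-promoter luciferase, 24 hrs at 37 C before luminescent detection.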

[4] = molecular target: Muscarinic acetylcholine receptor M1 (Rattus norvegicus) (UniProt P08482); test: qHTS Assay for Antagonists of Acetylcholine Muscarinic M1 Receptor: Kinetic Measurement of Intracellular Calcium Response (AID 943);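 also: Fluo-4 calcium signal as peak divided by basal fluorescence over 4 min; nearly all actives have a fitted effect of over 75% in size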
Method in brief: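 Quantitative HTS in CHO-M1 (rat receptor) cells: 10 min compound exposure ahead of 100 nM carbachol, Fluo-4 fluorescence followed 4 min, value expressed as peak-to-basal ratio.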

[5] = molecular target: Muscarinic acetylcholine receptor M1 (Rattus norvegicus) (UniProt P08482); test: qHTS Assay for Antagonists of Acetylcholine Muscarinic M1 Receptor: Measurement of IP-One Response (AID 944); also: potency is read from the fitted curve at half-maximal effect; nearly all actives have a fitted effect of over 75% in size
[6] = qHTS for differential inhibitors of proliferation of Plasmodium falciparum line D10 (AID 1877);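 also: potency is read from the fitted curve at half-maximal effect; parasites grown with compound for 72 h before DNA staining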
[7] = qHTS for differential inhibitors of proliferation of Plasmodium falciparum line HB3 (AID 1886); details: Potency: Plasmodium falciparum HB3 proliferation inhibition;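 also: potency is read from the fitted curve at half-maximal effect; parasites grown with compound for 72 h before SYBR Green readout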
[8] = molecular target: RecQ-like DNA helicase BLM (Homo sapiens) (UniProt P54132); test: qHTS Validation Assay for Inhibitors of Bloom's syndrome helicase (BLM) (AID 2364); also: potency is read from the fitted curve at half-maximal effect
Method in brief: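 BLM 50 nM in 25 mM Tris-HCl pH 8.0, 5 mM NaCl, 2 mM MgCl2, 1 mM DTT, 0.01% Tween-20, 2.5 ug/ml poly(dI-dC); 15 min cpd preinc, RT. Start: 200 nM forked DNA + 2 mM ATP (final). TAMRA read, 2 reads 2 h apart.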

[9] = Validation screen for small molecules that induce DNA re-replication in MCF 10A normal breast cells (AID 463097); also: potency is read from the fitted curve at half-maximal effect; nearly all actives have a fitted effect of over 60% in size
Method in brief: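 Following 48 hr compound incubation (37 C, 5% CO2), MCF 10A cells receive Hoechst for 40 min at 37 C. Nuclei are then scanned (excitation 405 nm, emission 500-530 nm) for total fluorescence intensity.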

[10] = Quantitative high throughput screen for delayed death inhibitors of the malarial parasite plastid, 96 hour incubation (AID 488745); also: potency is read from the fitted curve at half-maximal effect; nearly all actives have a fitted effect of over 70% in size
Method in brief: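 Two-generation (96 h) exposure of luciferase-reporter P. falciparum in erythrocytes, 2% hematocrit, 0.1% parasitemia final, 37 C, 5% CO2, RPMI 1640 with 0.5% Albumax. Growth inhibition scored by reduced luminescence.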

[11] = Quantitative high throughput screen for delayed death inhibitors of the malarial parasite plastid, 48 hour incubation (AID 488752); also: potency is read from the fitted curve at half-maximal effect; nearly all actives have a fitted effect of over 65% in size
Method in brief: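 Cultures: infected erythrocytes at final 2% hematocrit and 0.1% parasitemia in Albumax-supplemented RPMI. Parasites express integrated firefly luciferase. Incubation with compound lasts 48 h before luminescent detection of remaining reporter activity.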

[12] = molecular target: Thioredoxin reductase 1, cytoplasmic (Rattus norvegicus) (UniProt O89049); test: qHTS Assay for Substrates of Mammalian Selenoprotein Thioredoxin Reductase 1 (TrxR1) (AID 488772);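 also: 0% is about no effect; a drop in NADPH fluorescence below the no-compound background marks a TrxR1 substrate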
Method in brief: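 In this dual-purpose format, potential substrates are identified from the first fluorescence read after selenite addition, not from the 8-minute delta. Rat enzyme is preincubated with NADPH and then with compound at ~22 deg C.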

[13] = molecular target: M-phase phosphoprotein 8 (Homo sapiens) (UniProt Q99549); test: qHTS Validation Assay for Inhibitors for MPP8 Chromodomain Interactions with Methylated Histone Tails (AID 488949); details: AlphaScreen MPP8 binding to H3K9me3 peptide; activity change, negative = inhibition: at 57.1 µM (top of the series) unless noted; also: potency is read from the fitted curve at half-maximal effect; nearly all actives have a fitted effect of over 55% in size
Method in brief: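 Chemiluminescent proximity assay: histidine-tag capture via nickel acceptor beads, biotin peptide via streptavidin donor beads. Protein and peptide each at 50 nM, pH 7.4, with 30 min incubations at room temperature for complex formation, compound exposure and bead binding.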

[14] = molecular target: D(1A) dopamine receptor (Homo sapiens) (UniProt P21728); test: HTS Assay for Allosteric Agonists of the Human D1 Dopamine Receptor: Primary Screen for Potentiators (AID 488982); also: potency is read from the fitted curve at half-maximal effect
Method in brief: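 Tetracycline-induced HEK293 T-REx cells force-coupled to calcium signalling were incubated overnight at 30 C and dye-loaded at room temperature. Calcium flux over 180 s after compound addition flagged agonists; a further 180 s read after EC20 dopamine flagged potentiators.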

[15] = Nrf2 qHTS screen for inhibitors: Validation (AID 493153; active = well fitted inhibition curve with a large enough effect in the main read-out, with a control signal flat, not every such curve was filed as active; inconclusive = small, poorly fitted or top-dose-only effect, or effect the other way, or a change in a side signal; inactive = no such curve, though single readings can be large or run the other way;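 also: A549 cells with ARE-driven firefly luciferase reporter reporting Nrf2 activity; % of control where 0% means no effect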)
Method in brief: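 In this counterscreened reporter format, each well gives two signals: CellTiter-Fluor fluorescence for cytotoxicity and ARE-luciferase luminescence for Nrf2 function. A549 ARE_Fluc cells in 5% FBS OPTI-MEM were exposed to compound titrations for 18-24 h.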

[16] = qHTS for Inhibitors of ATXN expression: Validation of Cytotoxic Assay (AID 588349); also: potency is read from the fitted curve at half-maximal effect
Method in brief: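 Toxicity of test compounds toward HEK293 cells is scored from cellular ATP content measured by CellTiter Glo. Cells receive titrated doses and incubate 72 hr at 37 degrees C beforehand.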

[17] = qHTS for Inhibitors of ATXN expression: Validation (AID 588378); also: % is scaled to controls: 0 for no effect and ±100 for the full control effect; nearly all actives have a fitted effect of over 75% in size
Method in brief: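 After a 2 h attachment and 24 h compound incubation, HEK293-ATXN2-FFLuc wells are read for fluorescence at 405 nm excitation/525 nm emission as a viability measure, then for Bright-Glo luminescence reflecting ATXN2 expression.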

[18] = molecular target: Lysine-specific demethylase 5B (Homo sapiens) (UniProt Q9UGL1); test: Optimization screen for KDM5B Histone Demethylases FDH coupled qHTS against the LOPAC library (AID 1347166); details: KDM5B demethylation, FDH-coupled NADH fluorescence; activity, negative = inhibition: at 57.5 µM (top of the series) unless noted; also: 0% is about no effect
Method in brief: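 KDM5BDeltaAP (200nM final) in 50mM HEPES pH 7.5, 0.01% Tween-20 was preincubated with compound for 10 min at room temperature. A substrate mix of 12.5uM H3K4Me3, 25uM a-ketoglutarate, ascorbate, Fe2+, NAD+ and formaldehyde dehydrogenase was then added. NADH fluorescence (340/450 nm) was read initially and after 30 min.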

Papain (Carica papaya) = Papain (Carica papaya) (UniProt P00784); test: Primary qHTS assay for inhibitors of the protease papain (AID 1645873);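 also: papain turnover of Z-FR-AMC read as the AMC fluorescence gain over 10 min; potency is read from the fitted curve at half-maximal effect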

CC(C)[C@H](NC(=O)OCc1ccccc1)C(=O)N[C@H](C=O)Cc1ccccc1 (Cbz-Val-Phe-aldehyde)
active: Potency [6] 8.91 µM | Potency [7] 5.01 µM | Potency [10] 2.33 µM | Potency [11] 2.94 µM | Potency [14] 2.06 µM
inconclusive: activity, negative = inhibition [1] 58.2% [activator] | activity change, negative = inhibition [3] -24.9% [phenotype inactive] | Potency [5] 14.1 nM [inhibitor, full curve, poor fit] | Potency [8] 0.4 nM [inhibitor, full curve] | Potency [9] 14.1 µM [activator, single point] | Potency [13] 56.2 µM [inhibitor, partial curve] | Potency [16] 1.78 µM [cytotoxic, partial curve, poor fit] | Potency (Papain (Carica papaya)) 12.6 nM [inhibitor, full curve, poor fit]
inactive: Potency [2] | Potency [4] | Potency [12] | Potency [15] | Potency [17] | Potency [18]

Reference: PubChem BioAssay (NCATS)
